According to PubChem BioAssay AID2685 (National Center for Advancing Translational Sciences (NCATS), 2010):
Some of the results follow. The main result of the screen is listed elsewhere. These columns were measured beside it and carry no call. Compounds called inactive in the main read-out are mostly missing here. The note in brackets gives the kind of curve behind each potency; many fits are weak.

Test: qHTS Assay for Lipid Storage Modulators in Drosophila S3 Cells;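 as to cell number change: cells counted by Cell Tracker Red CMTPX staining in the red channel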
Details: BODIPY lipid droplet fluorescence, 18-24 h; for cell number change: measured here: cell count max response, cells fed with added oleic acid
Method in brief: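 Drosophila S3 cells got compounds at several concentrations plus oleic acid (400 uM solution). Laser-scanning cytometry with 488 nm excitation read lipid droplets at 500-530 nm and cells at 575-640 nm. Percent activity was relative to 20 uM Triacsin C.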

[1] = measured here: cell number channel AC50, cells fed with added oleic acid
[2] = measured here: lipid fluorescence (Fed channel) AC50, cells fed with added oleic acid

Row | SMILES | cell number change [%] | AC50 [1] | AC50 [2]
1 | O=C(NCc1ccc2c(c1)OCO2)C(=O)NC1CCCCC1 | 31.1 |  | 
2 | Cc1ccc2c(c1)N(C(C)C(=O)NCCc1ccccc1)C(=O)CO2 (stereo not drawn) | 46.6 | 11.6 µM [rising, partial curve] | 0.731 µM [rising, full curve]
3 | Cc1csc(N2CCCC2=O)n1 | 29.6 | 4.61 µM [rising, full curve, poor fit] | 2.06 µM [falling, partial curve]
4 | CS(=O)(=O)N(CC(=O)N1CCN(c2ccccc2)CC1)C1CCCCC1 | 2.63 |  | 0.0058 µM [falling, full curve, poor fit]
5 | Cc1cc(C(F)(F)F)c(C#N)c(SCC(=O)NC2CC2)n1 | 0.203 |  | 
6 | O=c1[nH]c(C2CCN(S(=O)(=O)/C=C/c3ccccc3)CC2)nc2c1nnn2Cc1ccc(F)cc1 | -15.8 |  | 5.62 µM [rising, single point]
7 | CC(=O)c1ccc(N2CCN(C(=O)C(=O)c3cn(CC(=O)N4CCCCCC4)c4ccccc34)CC2)cc1 |  |  | 18.4 µM [falling, partial curve, poor fit]
8 | O=C1CN(C(=O)c2ccc(Cl)nc2)c2ccccc2N1 | -44.5 | 1.46 µM [falling, partial curve] | 
9 | Nc1ncn(C23CC4CC(CC(C4)C2)C3)n1 |  |  | 5.8 µM [falling, single point]
10 | COc1cccc(NC(=O)CCN2CCOCC2)c1 | 8.14 |  | 29.1 µM [rising, single point]
11 | COc1ccc(-c2csc(NC(=S)NC(=O)c3ccco3)n2)cc1Br | 76.7 | 29.1 µM [rising, single point] | 20.6 µM [falling, single point]
12 | Cn1c(=O)cc(OCCCC(=O)NCc2ccco2)c2ccccc21 |  | 0.651 µM [rising, single point] | 0.58 µM [rising, single point]
13 | COc1ccc2cc(OCC(=O)NNC(=O)Nc3ccc(OC)c(OC)c3)ccc2c1 | 15.8 |  | 
14 | CC(C)CC(NS(=O)(=O)c1ccc2c(c1)oc(=O)n2C)C(=O)N1CC=C(c2ccccc2)CC1 (stereo not drawn) | 37.2 | 0.058 µM [rising, full curve, poor fit] | 20.6 µM [rising, partial curve]
15 | O=C(Nc1nc(-c2ccccn2)cs1)c1cccc(-n2cnnn2)c1 | 0.851 |  | 
16 | CCOC(=O)c1ccc(OCCOc2cccc(C)c2)cc1 | -4.99 |  | 29.1 µM [rising, single point]
17 | CCn1c(SCC(=O)Nc2ccccc2C(=O)OC)nnc1-c1cccc(C)c1 |  |  | 0.231 µM [rising, full curve, poor fit]
18 | COc1ccc2cc(CN(CCc3ccccc3)Cc3nnnn3CC3CCCO3)c(=O)[nH]c2c1 (stereo not drawn) | -23.6 |  | 4.61 µM [rising, partial curve]
19 | O=C1CCCN=C(Nc2ccc(F)c(Cl)c2)S1 | 7.96 |  | 4.61 µM [rising, single point]
20 | O=C(NCc1ccccn1)c1nc(-c2ccc(C(F)(F)F)cc2)no1 | 23.1 |  | 
21 | CNC(=O)NCC12CC3CC(CC(C3)C1)C2 | -8.79 |  | 3.66 µM [falling, single point]
22 | CC(C)[C@H](NC(=O)Nc1ccc(S(N)(=O)=O)cc1)C(=O)O | -0.866 |  | 0.517 µM [falling, full curve, poor fit]

Part of the list above in another layout:
Row,SMILES,cell number change [%],AC50 [1],AC50 [2]
2,Cc1ccc2c(c1)N(C(C)C(=O)NCCc1ccccc1)C(=O)CO2 (stereo not drawn),46.6,"11.6 µM [rising, partial curve]","0.731 µM [rising, full curve]"
3,Cc1csc(N2CCCC2=O)n1,29.6,"4.61 µM [rising, full curve, poor fit]","2.06 µM [falling, partial curve]"
4,CS(=O)(=O)N(CC(=O)N1CCN(c2ccccc2)CC1)C1CCCCC1,2.63,,"0.0058 µM [falling, full curve, poor fit]"
5,Cc1cc(C(F)(F)F)c(C#N)c(SCC(=O)NC2CC2)n1,0.203,,
6,O=c1[nH]c(C2CCN(S(=O)(=O)/C=C/c3ccccc3)CC2)nc2c1nnn2Cc1ccc(F)cc1,-15.8,,"5.62 µM [rising, single point]"
7,CC(=O)c1ccc(N2CCN(C(=O)C(=O)c3cn(CC(=O)N4CCCCCC4)c4ccccc34)CC2)cc1,,,"18.4 µM [falling, partial curve, poor fit]"
8,O=C1CN(C(=O)c2ccc(Cl)nc2)c2ccccc2N1,-44.5,"1.46 µM [falling, partial curve]",
9,Nc1ncn(C23CC4CC(CC(C4)C2)C3)n1,,,"5.8 µM [falling, single point]"
10,COc1cccc(NC(=O)CCN2CCOCC2)c1,8.14,,"29.1 µM [rising, single point]"
11,COc1ccc(-c2csc(NC(=S)NC(=O)c3ccco3)n2)cc1Br,76.7,"29.1 µM [rising, single point]","20.6 µM [falling, single point]"
12,Cn1c(=O)cc(OCCCC(=O)NCc2ccco2)c2ccccc21,,"0.651 µM [rising, single point]","0.58 µM [rising, single point]"
13,COc1ccc2cc(OCC(=O)NNC(=O)Nc3ccc(OC)c(OC)c3)ccc2c1,15.8,,
14,CC(C)CC(NS(=O)(=O)c1ccc2c(c1)oc(=O)n2C)C(=O)N1CC=C(c2ccccc2)CC1 (stereo not drawn),37.2,"0.058 µM [rising, full curve, poor fit]","20.6 µM [rising, partial curve]"
15,O=C(Nc1nc(-c2ccccn2)cs1)c1cccc(-n2cnnn2)c1,0.851,,

(next part)

Row | SMILES | cell number change [%] | AC50 [1] | AC50 [2]
23 | CN(C)CCCN(C(=O)c1ccc2c(c1)CCCC2)c1nc2cc3c(cc2s1)OCO3 | -14.7 |  | 14.6 µM [falling, single point]
24 | CN=C1SC(CC(=O)Nc2ccc(N3CCOCC3)cc2)C(=O)N1C (stereo not drawn) | -9.78 |  | 
25 | COc1ccc(CC(=O)Oc2cc(C)[nH]c(=O)c2[N+](=O)[O-])cc1 | -3.77 |  | 
26 | O=C(CSc1n[nH]c(-c2ccncc2)n1)NCCc1ccccc1 | -2.19 |  | 
27 | CC(C)(C)NC(=O)COC(=O)c1ccc(S(=O)(=O)N2CCCCCC2)cc1 | -21.8 |  | 
28 | O=C(c1cc(S(=O)(=O)N2CCCC2)c(Cl)cc1Cl)N1CCCC1 | -4.78 |  | 
29 | Cc1cc(Cl)ccc1OCC(=O)N(Cc1cccs1)C1CCS(=O)(=O)C1 (stereo not drawn) | 2.25 |  | 6.51 µM [rising, single point]
30 | CC(C)CC(NC(=O)c1ccc(Cl)cc1)C(=O)OCC(=O)c1ccc2c(c1)NC(=O)CO2 (stereo not drawn) | -62.9 | 2.31 µM [falling, full curve] | 0.58 µM [falling, single point]
31 | CCn1ncc(NC(=O)Nc2cccc(C(F)(F)F)c2)c1C(N)=O | -14 |  | 
32 | COc1cc(/C=C/C(=O)O)cc(S(=O)(=O)N2CCc3ccccc3C2)c1OC | -26.4 |  | 29.1 µM [falling, partial curve, poor fit]
33 | Cc1ccc(-c2[nH]ncc2CNCCc2cnn(-c3ccccc3)c2)cc1C | -53.2 | 16.4 µM [falling, single point] | 29.1 µM [falling, single point]
34 | COc1ccc(C(=O)NC2CC2)cc1OC1CCN(Cc2cc(C)cc(C)c2)CC1 | -23.8 |  | 
35 | Cc1ccc2c(c1)/C(=N/OC(=O)c1ccc(F)cc1)CCS2 | -5.89 |  | 5.17 µM [falling, single point]
36 | O=C(Cn1nnc(-c2ccccc2)n1)N/N=C/c1cccc([N+](=O)[O-])c1 | 16.1 |  | 
37 | Cc1ccc(C(=O)NCc2ccc(Cl)cc2)cc1S(=O)(=O)N1CCCCC1 | -3.58 |  | 
38 | COc1ccc(-c2ccc(OC)c([C@H]3[C@H]4C=CC[C@@H](C)[C@@H]4C(=O)N3Cc3ccccc3)c2)cc1OC | 7.48 |  | 1.64 µM [rising, partial curve]
39 | COc1ccc(C(=O)NNC(=O)C(NC(=O)c2cc(OC)cc(OC)c2)C(C)C)cc1 (stereo not drawn) |  |  | 7.31 µM [rising, partial curve]
40 | CCC(C)Sc1cccc(-c2nc3ccc(C)cn3c2NCc2ccccc2)c1 (stereo not drawn) | -90.8 | 23.1 µM [falling, single point] | 6.51 µM [falling, single point]
41 | Cc1ccc(-n2ncc3c2CC(C)(C)CC3NC(=O)c2ccc[n+]([O-])c2)cc1 (stereo not drawn) | 40.7 |  | 13 µM [rising, partial curve]
42 | COC(=O)c1ccccc1NC(=O)Cn1c(=O)oc2ccc(Cl)cc21 | 37 | 5.17 µM [falling, single point] | 4.11 µM [rising, single point]
43 | O=C(Cn1cnc2ccccc21)NCc1ccccc1 | -26.9 |  | 
44 | COC(=O)c1ccc(CSc2nnc(C)n2N)o1 | -5.47 |  | 

Row | SMILES | cell number change [%] | AC50 [1] | AC50 [2]
45 | Cc1sc2nc(SCC(=O)NCCOCCO)n(C)c(=O)c2c1C | -25.4 |  | 0.184 µM [rising, full curve, poor fit]
46 | COc1cc(C)ccc1OCCOc1c(C)cccc1Cl | -32.3 |  | 0.092 µM [rising, full curve, poor fit]
47 | Cc1nc(SCC(=O)N2CCOCC2)c2c(C)c(C)sc2n1 | -2.99 |  | 0.00461 µM [rising, full curve, poor fit]
48 | CCOc1ccccc1CNC(=O)CCc1cn(C)c2ccccc12 | 17.7 |  | 6.51 µM [rising, single point]
49 | O=C(Nc1cc(Br)ccc1O)C1CC(c2ccccc2Cl)=NO1 (stereo not drawn) | -48.1 | 23.1 µM [falling, single point] | 23.1 µM [falling, single point]
50 | O=C(CCN1C(=O)c2ccccc2S1(=O)=O)NCc1ccccc1Cl | -38.9 | 20.6 µM [falling, single point] | 23.1 µM [falling, single point]
51 | O=C(NCC1(N2CCCCC2)CCCCC1)c1ccc(S(=O)(=O)N2CCCC2)cc1 | 2.34 |  | 29.1 µM [rising, single point]
52 | CCn1cc(/C=C2\SC(=O)N(CC(=O)Nc3ccc4c(c3)OCO4)C2=O)c2ccccc21 | -0.333 |  | 11.6 µM [rising, partial curve]
53 | CN1CCCC(OC(=O)c2cccc(Br)c2)C1 (stereo not drawn) | 12 |  | 
54 | O=C(C1CCCN(S(=O)(=O)c2cccc3nonc23)C1)N1CCN(c2ccccc2)CC1 (stereo not drawn) | 35.2 | 8.2 µM [rising, partial curve, poor fit] | 3.66 µM [rising, full curve]
55 | CC(=O)Nc1ccc(S(=O)(=O)Nc2ccc(S(=O)(=O)Nc3nc(C)cc(C)n3)cc2)cc1 | 16.4 |  | 
56 | COc1ccc(C2=NOC(Cn3nc(C(=O)O)cc3-c3ccccc3)C2)cc1 (stereo not drawn) | 13.2 |  | 0.517 µM [falling, full curve]
57 | CCCC(=O)NC(Nc1ccc(S(=O)(=O)Nc2ncccn2)cc1)(C(=O)OCC)C(F)(F)F (stereo not drawn) | -1.13 |  | 
58 | CCn1cc(/C=C(\NC(=O)c2ccc(C)cc2)C(=O)NCCN2CCOCC2)c2ccccc21 | 4 |  | 
59 | O=C(O)c1cn(Cc2ccccc2)c2ccccc2c1=O | -1.97 |  | 25.9 µM [rising, single point]
60 | CC(=O)Nc1ccc(NC(=O)C(C)OC(=O)/C=C/c2ccc3c(c2)OCO3)cc1 (stereo not drawn) |  |  | 0.082 µM [rising, full curve]
61 | COc1ccc2c(c1OC)C(=O)OC2Nc1nc(-c2ccc([N+](=O)[O-])cc2)cs1 (stereo not drawn) |  |  | 16.4 µM [rising, single point]
62 | COc1ccc(Nc2nc(N)nc(CSc3nccc(C)n3)n2)cc1 | 0.331 |  | 4.61 µM [rising, full curve]
63 | O=C(Cc1ccccc1Cl)Nc1ccc(S(=O)(=O)N2CCOCC2)cc1 |  |  | 1.64 µM [falling, partial curve]
64 | CC(=O)Cc1nsc(Nc2ccc(F)cc2)n1 | -2.71 |  | 
65 | COc1ccccc1/C=C/C=N/NC(=O)Cc1cccs1 | -8.15 |  | 0.411 µM [rising, full curve, poor fit]
